Source: the supplement of paper PMC11348887
Where a name gives a salt, the structure may show the parent alone. The list shows a part of the results. Most entries show no effect beyond the scatter of the controls.

Experiments:
Details in all cases: 5 µM; treatment: days 7-14 after plating, readout day 21
[1] = tested on: hPSC-derived cortical neurons (WA09); assay: nucleus area z-score vs screen plate; higher = larger nuclei (more mature)
[2] = tested on: hPSC-derived cortical neurons (WA09); assay: total neurite length per nucleus (MAP2) z-score; higher = more neurite growth
[3] = tested on: hPSC-derived cortical neurons (WA09); assay: nucleus roundness z-score vs screen plate; higher = rounder nuclei (more mature)
[4] = tested on: hPSC-derived cortical neurons (WA09); assay: KCl-induced FOS+/EGR-1+ double-positive nuclei fraction z-score (KCl minus unstimulated); higher = stronger activity-induced IEG response

OCc1ccccc1 [Benzyl alcohol]
nucleus area z-score [1]: 1.41 | total neurite length per nucleus (z-score) [2]: -0.138 | nucleus roundness z-score [3]: -0.181 | KCl-induced FOS+/EGR-1+ double-positive nuclei fraction z-score [4]: -0.472

CN(C)C(=O)[C@H](O)[C@H](Cc1ccccc1)NC(=O)c1cc2cc(Cl)ccc2[nH]1
nucleus area z-score [1]: 1.26 | total neurite length per nucleus (z-score) [2]: 1.37 | nucleus roundness z-score [3]: 1.89 | KCl-induced FOS+/EGR-1+ double-positive nuclei fraction z-score [4]: 1.32

Cc1ccc2c(c1)C(=O)C1(O)CCN(c3ccccc3)C1=N2 (single isomer, unassigned; (-)) [(-)-Blebbistatin]
nucleus area z-score [1]: 2.9 | total neurite length per nucleus (z-score) [2]: -0.94 | nucleus roundness z-score [3]: -3.15 | KCl-induced FOS+/EGR-1+ double-positive nuclei fraction z-score [4]: -0.474

O=C(NNc1ccccc1)c1ccncc1
nucleus area z-score [1]: 0.167 | total neurite length per nucleus (z-score) [2]: -0.565 | nucleus roundness z-score [3]: -1.14 | KCl-induced FOS+/EGR-1+ double-positive nuclei fraction z-score [4]: -0.755

CN1CCC(=C2c3ccccc3C=Cc3ccccc32)CC1 [Cyproheptadine hydrochloride]
nucleus area z-score [1]: -0.551 | total neurite length per nucleus (z-score) [2]: -1.47 | nucleus roundness z-score [3]: -2.01 | KCl-induced FOS+/EGR-1+ double-positive nuclei fraction z-score [4]: -0.418

Cc1nc2c([nH]1)-c1ccccc1N(C(=O)c1ccc(NC(=O)c3ccccc3-c3ccccc3)cc1)CC2 [Conivaptan HCl]
nucleus area z-score [1]: 1.26 | total neurite length per nucleus (z-score) [2]: -0.145 | nucleus roundness z-score [3]: -0.809 | KCl-induced FOS+/EGR-1+ double-positive nuclei fraction z-score [4]: -0.252

N#Cc1cccc(-c2c[nH]c3ncnc(N4CCOCC4)c23)c1
nucleus area z-score [1]: 0.266 | total neurite length per nucleus (z-score) [2]: 1.12 | nucleus roundness z-score [3]: 0.915 | KCl-induced FOS+/EGR-1+ double-positive nuclei fraction z-score [4]: 1.02

COC(=O)Nc1nc2cc([S+]([O-])c3ccccc3)ccc2[nH]1 (stereo not given) [Oxfendazole]
nucleus area z-score [1]: -0.433 | total neurite length per nucleus (z-score) [2]: 0.909 | nucleus roundness z-score [3]: 2.29 | KCl-induced FOS+/EGR-1+ double-positive nuclei fraction z-score [4]: 1.55

CC(C(=O)O)c1ccc(C(=O)c2cccs2)cc1 (stereo not given) [Suprofen]
nucleus area z-score [1]: 0.0598 | total neurite length per nucleus (z-score) [2]: 0.384 | nucleus roundness z-score [3]: -0.309 | KCl-induced FOS+/EGR-1+ double-positive nuclei fraction z-score [4]: 0.194

CC(C)(C)c1ccc(S(=O)(=O)/C=C/C#N)cc1
nucleus area z-score [1]: 0.0613 | total neurite length per nucleus (z-score) [2]: 0.0299 | nucleus roundness z-score [3]: 0.687 | KCl-induced FOS+/EGR-1+ double-positive nuclei fraction z-score [4]: -0.361

CC(NC(=O)C(Cc1ccccc1)NC(=O)OCc1ccccc1)C(=O)CF (stereo not given)
nucleus area z-score [1]: 0.59 | total neurite length per nucleus (z-score) [2]: 0.305 | nucleus roundness z-score [3]: -1.76 | KCl-induced FOS+/EGR-1+ double-positive nuclei fraction z-score [4]: -0.554

COc1cc(C)c(/C=C/C(C)=C/C=C/C(C)=C/C(=O)O)c(C)c1C [Acitretin]
nucleus area z-score [1]: 0.324 | total neurite length per nucleus (z-score) [2]: 0.17 | nucleus roundness z-score [3]: 0.0115 | KCl-induced FOS+/EGR-1+ double-positive nuclei fraction z-score [4]: 0.892

CC(C)CN(C[C@@H](O)[C@H](Cc1ccccc1)NC(=O)O[C@H]1CO[C@H]2OCC[C@H]21)S(=O)(=O)c1ccc(N)cc1 [Darunavir Ethanolate]
nucleus area z-score [1]: 1.05 | total neurite length per nucleus (z-score) [2]: -0.64 | nucleus roundness z-score [3]: -0.09 | KCl-induced FOS+/EGR-1+ double-positive nuclei fraction z-score [4]: -1.45

Cc1cn([C@H]2C=C[C@@H](CO)O2)c(=O)[nH]c1=O [Stavudine (d4T)]
nucleus area z-score [1]: 0.917 | total neurite length per nucleus (z-score) [2]: 0.6 | nucleus roundness z-score [3]: 0.363 | KCl-induced FOS+/EGR-1+ double-positive nuclei fraction z-score [4]: 1.33

O=c1ccc2ccccc2o1 [Coumarin]
nucleus area z-score [1]: 0.141 | total neurite length per nucleus (z-score) [2]: -0.266 | nucleus roundness z-score [3]: -0.0178 | KCl-induced FOS+/EGR-1+ double-positive nuclei fraction z-score [4]: 0.0684

CC[C@H](C)n1cc(C)c2c(C(=O)NCc3c(C)cc(C)[nH]c3=O)cc(-c3ccc(N4CCNCC4)nc3)cc21
nucleus area z-score [1]: -0.423 | total neurite length per nucleus (z-score) [2]: 0.31 | nucleus roundness z-score [3]: 0.806 | KCl-induced FOS+/EGR-1+ double-positive nuclei fraction z-score [4]: 0.86

COC(=O)[C@@H]1[C@H]2C[C@H]3c4[nH]c5ccccc5c4CCN3C[C@@H]2CC[C@@H]1O [Yohimbine HCl]
nucleus area z-score [1]: -0.49 | total neurite length per nucleus (z-score) [2]: 0.4 | nucleus roundness z-score [3]: 0.338 | KCl-induced FOS+/EGR-1+ double-positive nuclei fraction z-score [4]: 0.0936

Clc1ccc(COC(Cn2ccnc2)c2ccc(Cl)cc2Cl)cc1 (stereo not given) [Econazole nitrate]
nucleus area z-score [1]: -2.55 | total neurite length per nucleus (z-score) [2]: -0.124 | nucleus roundness z-score [3]: -0.0831 | KCl-induced FOS+/EGR-1+ double-positive nuclei fraction z-score [4]: 0.206

CC(C)c1cc(C(C)C)c(CC(=O)NS(=O)(=O)Oc2c(C(C)C)cccc2C(C)C)c(C(C)C)c1 [Avasimibe]
nucleus area z-score [1]: 0.357 | total neurite length per nucleus (z-score) [2]: 0.289 | nucleus roundness z-score [3]: 0.505 | KCl-induced FOS+/EGR-1+ double-positive nuclei fraction z-score [4]: 2.71

CC(C)N(CC[C@H](c1ccccc1)c1cc(CO)ccc1O)C(C)C
nucleus area z-score [1]: 0.209 | total neurite length per nucleus (z-score) [2]: 0.645 | nucleus roundness z-score [3]: 1.01 | KCl-induced FOS+/EGR-1+ double-positive nuclei fraction z-score [4]: 1.23

CO[C@H]1C[C@@H]2CC[C@@H](C)[C@@](O)(O2)C(=O)C(=O)N2CCCC[C@H]2C(=O)O[C@H]([C@H](C)C[C@@H]2CC[C@@H](O)[C@H](OC)C2)CC(=O)[C@H](C)/C=C(\C)[C@@H](O)[C@@H](OC)C(=O)[C@H](C)C[C@H](C)/C=C/C=C/C=C/1C [Rapamycin (Sirolimus)]
nucleus area z-score [1]: -2.1 | total neurite length per nucleus (z-score) [2]: -1.02 | nucleus roundness z-score [3]: -2.21 | KCl-induced FOS+/EGR-1+ double-positive nuclei fraction z-score [4]: -0.724

C=CCNC1=C2C[C@@H](C)C[C@H](OC)[C@H](O)[C@@H](C)/C=C(\C)[C@H](OC(N)=O)[C@@H](OC)/C=C\C=C(/C)C(=O)NC(=CC1=O)C2=O [17-AAG (Tanespimycin)]
nucleus area z-score [1]: 2.43 | total neurite length per nucleus (z-score) [2]: 4.31 | nucleus roundness z-score [3]: 0.615 | KCl-induced FOS+/EGR-1+ double-positive nuclei fraction z-score [4]: -0.0379

O=c1[nH]cnc2c1ncn2[C@H]1CC[C@@H](CO)O1 [Didanosine]
nucleus area z-score [1]: 0.572 | total neurite length per nucleus (z-score) [2]: -0.719 | nucleus roundness z-score [3]: -0.0521 | KCl-induced FOS+/EGR-1+ double-positive nuclei fraction z-score [4]: -0.15

CCOC(=O)N[C@@H]1CC[C@@H]2[C@@H](C1)C[C@H]1C(=O)O[C@H](C)[C@H]1[C@H]2/C=C/c1ccc(-c2cccc(F)c2)cn1 [Vorapaxar]
nucleus area z-score [1]: 0.58 | total neurite length per nucleus (z-score) [2]: 0.0437 | nucleus roundness z-score [3]: 0.344 | KCl-induced FOS+/EGR-1+ double-positive nuclei fraction z-score [4]: -0.312

Nc1nc2[nH]cc(CCc3ccc(C(=O)N[C@@H](CCC(=O)O)C(=O)O)cc3)c2c(=O)[nH]1 [Pemetrexed]
nucleus area z-score [1]: 0.484 | total neurite length per nucleus (z-score) [2]: 1.12 | nucleus roundness z-score [3]: 0.2 | KCl-induced FOS+/EGR-1+ double-positive nuclei fraction z-score [4]: 1.54
